# PubChem BioAssay AID652272 – Drosophila RNAi Screening Center – 2013
# Aim: 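Genes whose knock-down decreases or increases Hedgehog reporter output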 (primary screen)
# System: Drosophila clone 8 (Cl8) cells
# Knock-down reagent: long dsRNA against Drosophila genes
# Detection: 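Plate reader light from a firefly reporter under a ptc promoter fragment that responds to Hedgehog, with Renilla light as transfection reference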
# Reading the numbers: firefly Hh reporter signal: higher = more ptc reporter light; Renilla reference signal: higher = more Renilla control light
# Call rule: 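Called a hit if the two-replicate mean z-score lies below -2 or above +3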
# Meaning of the calls: active = hit: reporter lowered or raised; inactive = not a hit
# In all, the deposit lists about 21,000 reagents; this is an unselected part of those that have a named target and a result. Over the whole deposit, 503 (2.4%) got an active call. 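Raw plate light values, not normalised; calls rest on replicate z-scores that were not deposited; hits include reporter decreases as well as increases.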 Entries without a mark were called inactive. Names joined by + are all predicted targets of the reagent. Not stated in the record: the amount of reagent, the time to read-out.
gene knocked down,amplicon,"firefly Hh reporter signal, replicate 1","firefly Hh reporter signal, replicate 2","firefly Hh reporter signal, replicate 3","Renilla reference signal, replicate 1","Renilla reference signal, replicate 2"
Gr10a (GeneID 117501),DRSC18897,8.78e5,3.22e5,,44484,4220
CG13457 (GeneID 39649),DRSC10004,1.08e5,,,6183,3094
CG31562 (retired record) (GeneID 40753),DRSC12273,98983,1.66e5,,3920,4022
CG31562 (retired record) (GeneID 40753),DRSC12274,94696,1.11e5,,3672,3126
hbn (GeneID 47894),DRSC04082,32562,37378,,920,2455
hbn (GeneID 47894),DRSC04238,1.61e5,6.36e5,1.32e5,3984,35117
hbn (GeneID 47894),DRSC04239,1.08e5,87744,,2776,6365
CG4927 (GeneID 36852),DRSC06903,65671,44982,,2156,3365
Tsp66A + CG42661 + CG42660,DRSC10233,94116,54928,,9373,3984
nonC (GeneID 31625),DRSC18366,1.10e5 (active),82528,,1362,803
nonC (GeneID 31625),DRSC18367,1.68e5 (active),6.23e5,,3015,8816
Nup75 (GeneID 37078),DRSC06947,60852 (active),37045,,4099,2226
CG15576 (GeneID 31369),DRSC18064,65489,1.44e5,,2477,5776
Uro (GeneID 34060),DRSC03469,1.02e5,70899,,1672,6107
CG5225 (GeneID 42053),DRSC15742,1.11e5,1.04e5,,2801,2557
CG8197 (GeneID 35912),DRSC07105,93415,42776,,1995,3945
unc79 (GeneID 42310),DRSC15746,98626,94544,,4484,4166
CG14826 (GeneID 38791),DRSC10197,39322,57329,,4323,3691
Toll-6 (GeneID 39663),DRSC11304,1.17e5,,,3576,3264
cN-IIIB (GeneID 37875),DRSC04359,89095,59002,,3913,2243
TkR86C (GeneID 41286),DRSC16880,87930,1.10e5,,1960,3184
CG13026 (GeneID 39868),DRSC09906,1.59e5,,,3285,6741
CG33271 (GeneID 2768972),DRSC10583,58749,48320,39911,6176,3421
Spn28B (GeneID 34035),DRSC02982,2.01e5,4.91e5,80082,4777,29066
Fdx1 (GeneID 39070),DRSC11167,45600,75140,85625,7517,6413
CG18428 (GeneID 42857),DRSC15326,5.67e5,1.02e5,,28166,2904
mthl1 (GeneID 32637),DRSC19905,53236,1.98e5,,2513,8578
Ser6 (GeneID 33073),DRSC20574,1.50e5,2.40e5,,5923,10786
jumu (GeneID 41265),DRSC16651,49745,58331,,1814,1797

Records listed so far whose gene name begins with H or h:
gene knocked down,amplicon,"firefly Hh reporter signal, replicate 1","firefly Hh reporter signal, replicate 2","firefly Hh reporter signal, replicate 3","Renilla reference signal, replicate 1","Renilla reference signal, replicate 2"
hbn (GeneID 47894),DRSC04082,32562,37378,,920,2455
hbn (GeneID 47894),DRSC04238,1.61e5,6.36e5,1.32e5,3984,35117
hbn (GeneID 47894),DRSC04239,1.08e5,87744,,2776,6365

The list goes on.
gene knocked down,amplicon,"firefly Hh reporter signal, replicate 1","firefly Hh reporter signal, replicate 2","firefly Hh reporter signal, replicate 3","Renilla reference signal, replicate 1","Renilla reference signal, replicate 2"
Osi24 (GeneID 40755),DRSC12275,93413,1.07e5,,3708,2881
JTBR (GeneID 38235),DRSC08667,80224,40530,,2774,2832
CG32668 (GeneID 318147),DRSC18879,4.55e5,2.52e5,,24237,5612
Cpr66Cb (GeneID 38940),DRSC10769,60651,65466,,6740,4113
CG12289 (GeneID 39279),DRSC09874,54322,51985,55248,6209,3732
CG7881 (GeneID 35521),DRSC04898,88252,45735,,1704,4166
Vha16-1 (GeneID 44307),DRSC05020,1.22e5,62916,,3252,5980
Kr-h2 (GeneID 33859),DRSC03356,1.24e5,44513,,3287,4769
Galphaq (GeneID 36384),DRSC07432,96018,45872,,3968,2050
frma (GeneID 31464),DRSC18297,82776,63800,,2114,1495
VGAT (GeneID 36574),DRSC07160,1.11e5,48183,,2793,1351
HtrA2 (GeneID 41756),DRSC16425,77050,92386,,2800,2442
Obp59a (GeneID 37605),DRSC04160,81891,75792,,2042,6259
CG31493 (GeneID 318765),DRSC12583,1.16e5,98941,,4832,3449
CG18754 (GeneID 59145),DRSC15387,4.46e5,98780,,23685,3025
Nup43 (GeneID 42209),DRSC16279,7.38e5,1.40e5,,37275,3981
heph (GeneID 48571),DRSC14082,7.14e5,2.74e5,,30849,5080
heph (GeneID 48571),DRSC14085,4.58e5,2.00e5,,21293,3180
heph (GeneID 48571),DRSC15436,62864,1.66e5,,2547,6744
heph (GeneID 48571),DRSC16783,59719,1.64e5,,2176,6475
CREG (GeneID 42092),DRSC16595,68978,1.02e5,,1831,2536
CG13954 (GeneID 35959),DRSC06442,98682,49072,,2432,4054
CG9775 (GeneID 40576),DRSC12330,1.77e5,1.46e5,,5957,6260
CG1227 (GeneID 40872),DRSC12534,94112,69922,,3368,2209
zpg (GeneID 251414),DRSC09702,68776,84572,,8368,5915
Snx21 (GeneID 33466),DRSC00564,82423,73760,,3382,3155
yellow-g (GeneID 38294),DRSC08575,66672,34663,,2048,3250
CG2100 (GeneID 40707),DRSC12303,1.10e5,84024,,4715,3386
